Experimental data: patent publication EP0266006A2, “Novel hypotensive diuretic peptides” (SHIONOGI SEIYAKU KABUSHIKI KAISHA trading under the name of …, priority 1986, dated 1988)
At least one peptide structure holds a part that was inferred or is arguable (an end, a ring closure or a residue). Bridges are numbered along the chain shown (N, C = ends). Roman numbers before positions name the chains, in order. Where no end group is shown, it is not given here.

System: Male Slc-SD rats
Assay: Transition of urine volume and excreted sodium ion volume in anesthetized rats after intravenous injection
Type: in vivo
Settings: venous cannula
[1] = α-hANP 1 µg/animal, anesthetized male Slc-SD rats, Fig. 1
[2] = α-hANP 1 µg/animal, anesthetized male Slc-SD rats, Fig. 2

Compound: CC[C@H](C)[C@@H]1NC(=O)[C@H](CCCNC(=N)N)NC(=O)[C@H](CC(=O)O)NC(=O)[C@H](CCSC)NC(=O)[C@H](CCCNC(=N)N)NC(=O)CNC(=O)CNC(=O)[C@H](Cc2ccccc2)NC(=O)[C@@H](NC(=O)[C@H](CO)NC(=O)[C@H](CO)NC(=O)[C@H](CCCNC(=N)N)NC(=O)[C@H](CCCNC(=N)N)NC(=O)[C@H](CC(C)C)NC(=O)[C@@H](N)CO)CSSC[C@@H](C(=O)N[C@@H](CC(N)=O)C(=O)N[C@@H](CO)C(=O)N[C@@H](Cc2ccccc2)C(=O)N[C@@H](CCCNC(=N)N)C(=O)N[C@@H](Cc2ccc(O)cc2)C(=O)O)NC(=O)CNC(=O)[C@H](CC(C)C)NC(=O)CNC(=O)[C@H](CO)NC(=O)[C@H](CCC(N)=O)NC(=O)[C@H](C)NC(=O)CNC1=O [α-hANP, reference compound]
- urine volume: change after administration [1]: increased immediately right after administration
- urine volume: time to reach the normal value [1]: 10 min
- Na⁺ excretion volume: change after administration [2]: increased immediately right after administration
- Na⁺ excretion volume: time to reach the normal value [2]: 10 min

Compound: I: CFGGRMDRIGAQSGLGCNSFRY / II: CFGGRMDRIGAQSGLGCNSFRY (disulfide I:1-II:17, I:17-II:1) [peptide I, human β-ANP-(7-28)]
- urine volume: peak value compared with α-hANP (peptide I 3 µg/animal versus α-hANP 1 µg/animal, Fig. 1): lower than those by α-hANP administration
- Na⁺ excretion: peak value compared with α-hANP (peptide I 3 µg/animal versus α-hANP 1 µg/animal, Fig. 2): lower than those by α-hANP administration
- increase of urine volume (peptide I 3 µg/animal, anesthetized male Slc-SD rats, Fig. 1): mild
- increase of Na⁺ excretion (peptide I 3 µg/animal, anesthetized male Slc-SD rats, Fig. 2): mild
- urine volume: decrease after the peak (peptide I 3 µg/animal, Fig. 1): slow
- Na⁺ excretion: decrease after the peak (peptide I 3 µg/animal, Fig. 2): slow
